# Publication PMC9278747
# The chains behind the UniProt entries cited, without tags or fusion partners. Where a name states a change or a piece, a line headed by the entry shows the natural chain unless it says otherwise.
# UniProt P33297: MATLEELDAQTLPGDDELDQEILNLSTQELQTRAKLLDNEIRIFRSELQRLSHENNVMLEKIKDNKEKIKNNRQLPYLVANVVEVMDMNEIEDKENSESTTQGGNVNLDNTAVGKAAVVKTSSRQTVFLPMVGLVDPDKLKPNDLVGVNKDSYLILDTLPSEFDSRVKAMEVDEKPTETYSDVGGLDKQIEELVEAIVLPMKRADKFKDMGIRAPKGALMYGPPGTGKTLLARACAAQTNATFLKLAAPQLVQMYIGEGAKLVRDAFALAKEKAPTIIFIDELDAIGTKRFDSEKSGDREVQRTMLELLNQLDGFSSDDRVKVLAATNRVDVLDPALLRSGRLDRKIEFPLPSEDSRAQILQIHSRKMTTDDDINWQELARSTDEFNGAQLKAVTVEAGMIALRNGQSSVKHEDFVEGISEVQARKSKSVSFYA
# Results are given in words; binding and its absence hold for the method and conditions named. In cells and extracts the contact can be indirect. Some entries that bind do so weakly or less than the wild type.
# Biological target: OtUBD resin (Cys-OtUBD or Cys-His6-OtUBD covalently linked to SulfoLink resin) (Orientia tsutsugamushi) (UniProt B3CVM3)
# Assay: pull-down; only the target purified
row,Substance,binding
1,likely monoubiquitylated Rpt5PA (additional slower-migrating Rpt5PA species) (from UniProt P33297 1-434; P0CG63 1-76),binds
2,"ubiquitin (yeast, free) (from UniProt P0CG63 1-76)",binds
3,"ubiquitylated Rpt5PA (higher mass species, likely endogenous polyubiquitylated Rpt5PA) (from UniProt P33297 1-434; P0CG63 1-76)",binds
